# From PMC7819943, “Rice protein-binding microarrays: a tool to detect cis-acting elements near promoter regions in rice”
# Amino acid sequences for entries named in this document (tags omitted).
# UniProt Q0JBA9, entry or part of it: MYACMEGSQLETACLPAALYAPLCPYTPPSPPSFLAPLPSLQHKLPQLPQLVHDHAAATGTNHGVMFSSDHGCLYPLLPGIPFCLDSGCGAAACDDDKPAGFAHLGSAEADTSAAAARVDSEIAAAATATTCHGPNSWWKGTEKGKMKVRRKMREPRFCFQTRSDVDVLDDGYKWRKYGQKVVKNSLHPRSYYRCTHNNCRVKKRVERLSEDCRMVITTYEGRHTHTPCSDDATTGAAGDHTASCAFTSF
# The other results are listed elsewhere or left out.
# Target: OsWRKY34 (Oryza sativa, UniProt Q0JBA9 1-250)
# Assay: protein-binding microarray (RPBM); PBS, 2% BSA, 51.3 ng/ul salmon testes DNA, 50 uM zinc acetate, 200 nM TF, 25 C, 1 h; high values mean tight binding
# Settings: protein: recombinant; tags: N-terminal polyhistidine and DsRed monomer fusion (pET32a); label: CyDye5-dUTP incorporated in the synthesized complementary strand; 3' TTTTT single-stranded linker to array surface; dsDNA, one strand shown
# Outline: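 Binding signal is reported as fluorescence intensity per feature (arbitrary units) from an Axon 4000B scanner. Incubation used 200 nM of each Ni–NTA-purified, N-terminally polyhistidine- and DsRed-fused transcription factor from E. coli BL21-CodonPlus on a double-stranded custom Agilent array for 1 h at 25 °C, with 50 µM zinc acetate in the buffer, followed by washing.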
row,Sequence,binding signal
1,AATTCAATCTTATGAAAATTTTTCCATCCTTGACTACTAACGGAGTCACCTAGTGCAG,8180 fluorescence intensity (a.u.)
2,CCCATTTCCCTTGCCGTTTCTCGCGCACGAATCTGAACAACGGAGTCACCTAGTGCAG,8280 fluorescence intensity (a.u.)
3,TTCCTGTGAAAGTCGCACGCATGCATTTGTCTGTTTCGTACGGAGTCACCTAGTGCAG,9820 fluorescence intensity (a.u.)
4,TACGTTCTTCGCGAGCTCATTTGCTTTGTGGGAATTGGGGCGGAGTCACCTAGTGCAG,16100 fluorescence intensity (a.u.)
5,GCCAAGATTGGAGAAGATGGGGAGATGAAGGGGTGGGGACCGGAGTCACCTAGTGCAG,9020 fluorescence intensity (a.u.)
6,GTGGCTTGAATTGTGTTGTCTCGGGTTGAAATCCCTCACTCGGAGTCACCTAGTGCAG,8340 fluorescence intensity (a.u.)
7,AACTCAAATTTTGGGTCCATTCTACATACCGTACACCGGCCGGAGTCACCTAGTGCAG,8140 fluorescence intensity (a.u.)
8,TCTTCTTCCATGGTCTTTTCTAGATAAGGCTCTCTAATGTCGGAGTCACCTAGTGCAG,8620 fluorescence intensity (a.u.)
9,GTTAGGCATGCTGCTTGTTTATTTTTTTTCAAGTTGAGAACGGAGTCACCTAGTGCAG,8140 fluorescence intensity (a.u.)
10,CTTCTTGATCCACCGATTGTTCTTCGATTTCTTGCTTCTTCGGAGTCACCTAGTGCAG,11300 fluorescence intensity (a.u.)
11,AATTAGGGACCAGTCCGCCGTATCAACGTTTACCGTTTCTCGGAGTCACCTAGTGCAG,8520 fluorescence intensity (a.u.)
12,AAATTTTTAATAACTACAAGTACTTTCTTTAACTTTAACACGGAGTCACCTAGTGCAG,8210 fluorescence intensity (a.u.)
13,GGGCGAGGAGCAGCGGCGGGCGGGCGGATGAGGGGCGGCGCGGAGTCACCTAGTGCAG,11400 fluorescence intensity (a.u.)
14,ACGCATCGCGTTGACGCCGCTCCGCCCTCTTTCCTTTGCACGGAGTCACCTAGTGCAG,10300 fluorescence intensity (a.u.)
15,GCTCTCGCGCCGCGGTCGCTTTCCTTCCCCTAAATTAAATCGGAGTCACCTAGTGCAG,9340 fluorescence intensity (a.u.)
16,GGATGGGGAGTTGATTGCGGGAGGGATGAGTGTGGACGCACGGAGTCACCTAGTGCAG,12200 fluorescence intensity (a.u.)
17,ATGTATCCTGTATGGTTTGTTTGAGCCTTAGTTTTTCAATCGGAGTCACCTAGTGCAG,10600 fluorescence intensity (a.u.)
18,TGCATCTTCTTCTCTACTCCACGGCCGCGACATCGAACTTCGGAGTCACCTAGTGCAG,13800 fluorescence intensity (a.u.)
19,ACACTATTTTTTTATTTTTCATGTGTAATTTTGGTTCATACGGAGTCACCTAGTGCAG,9940 fluorescence intensity (a.u.)
20,GACTACTGAATGTGCTATTCTTGGCCTTTTCTATAGATAACGGAGTCACCTAGTGCAG,9960 fluorescence intensity (a.u.)
21,AGAAAAGTTGTGCCAAGCGGACCCAAAAACTGTCCCTTATCGGAGTCACCTAGTGCAG,8830 fluorescence intensity (a.u.)

# Some of the entries above in another layout:
row	Sequence	binding signal
7	AACTCAAATTTTGGGTCCATTCTACATACCGTACACCGGCCGGAGTCACCTAGTGCAG	8140 fluorescence intensity (a.u.)
8	TCTTCTTCCATGGTCTTTTCTAGATAAGGCTCTCTAATGTCGGAGTCACCTAGTGCAG	8620 fluorescence intensity (a.u.)

# (listing goes on)

row,Sequence,binding signal
1,CAGACTTGCGGTGGATGGGGCGGTGGGGAAAGCATAAATGCGGAGTCACCTAGTGCAG,14300 fluorescence intensity (a.u.)
2,CCGGCCGCTGCCATCTCCGCACCCCGCTTCCAGTTCTGACCGGAGTCACCTAGTGCAG,8280 fluorescence intensity (a.u.)
3,GAAGATTGAATCCCTCTGGTGTATATTACCTTCTGTTCTTCGGAGTCACCTAGTGCAG,8860 fluorescence intensity (a.u.)
4,CCTTCCTCACTTTTGGTGTCTTCTGCTTTCGTCACAAGGACGGAGTCACCTAGTGCAG,8500 fluorescence intensity (a.u.)
5,ATGCTTCTTTTTTTTTTCCCTTATCTTTTACGGGGAGGAGCGGAGTCACCTAGTGCAG,10300 fluorescence intensity (a.u.)
6,CCTTCCTTTTCCGCTCTCTTTCACCGTCCCCGCCGCGTCCCGGAGTCACCTAGTGCAG,8790 fluorescence intensity (a.u.)
7,CTCACCGGTCATTCGCAGCCCACCAACCTCCAAAGCCGGTCGGAGTCACCTAGTGCAG,9220 fluorescence intensity (a.u.)
8,TAGGTCGCTCGCTGCTCACTCTACACAGCAGCATGTTTTCCGGAGTCACCTAGTGCAG,9800 fluorescence intensity (a.u.)
9,GTTTTCCCAGCGCTGCCGTCTCTTCCGCCGCACTTTTAGACGGAGTCACCTAGTGCAG,9520 fluorescence intensity (a.u.)
10,ACACCAGCCGACCCCTAACTCGATCTCGTCTCCGTATATACGGAGTCACCTAGTGCAG,10600 fluorescence intensity (a.u.)
11,CCCACATGAATACCCTGCACTACCACCAACACACCACTCGCGGAGTCACCTAGTGCAG,9750 fluorescence intensity (a.u.)
12,TGGTTATTATCACTTCCCTGTTAGTACTTGTGGCTTATTACGGAGTCACCTAGTGCAG,13500 fluorescence intensity (a.u.)
13,CTAACTTTTATAACATACTAGCGCTCACAGTCTCGTCACACGGAGTCACCTAGTGCAG,12300 fluorescence intensity (a.u.)
14,TCCGCCTCCGCCGCCGCCTCGCCGTCCGCCTCCGCGGCCGCGGAGTCACCTAGTGCAG,10300 fluorescence intensity (a.u.)
15,TTGGCTACTGTATTGGGGATTAATTTGGGTAATTACTACTCGGAGTCACCTAGTGCAG,11100 fluorescence intensity (a.u.)
16,CCCTCGTCTTCTTCTCCACGCGACGCCGGTCAAAGTTTGACGGAGTCACCTAGTGCAG,10700 fluorescence intensity (a.u.)
17,TGGTATCGAAAGTTCATGTTTTTGGTTTTATAGTACCGAACGGAGTCACCTAGTGCAG,9430 fluorescence intensity (a.u.)
18,GTGATTAGCCATTCCTCTTCTCATCTCTAGCCACTTCGCTCGGAGTCACCTAGTGCAG,8100 fluorescence intensity (a.u.)
19,CCACCATTTTTTATTAATTTCTGTATGAAACTGACAAGTGCGGAGTCACCTAGTGCAG,8090 fluorescence intensity (a.u.)
20,ACGATTGTTATGTTTGATTCTCTCGTACGATTGCTCACGGCGGAGTCACCTAGTGCAG,8460 fluorescence intensity (a.u.)
21,GGACCTATTTGGAGAGTTTCTAGCTGCTGTAGTTTTCCACCGGAGTCACCTAGTGCAG,8220 fluorescence intensity (a.u.)
